Measurements taken from US20220389111A1 (SHANGHAI EPIMAB BIOTHERAPEUTICS, published 2022).
Changes are numbered by the printed parent chain. These are yes or no findings as the source states them, for the method shown. Some results given as binding are weak or reduced against the parent protein; the word gives no strength.

B1: mAb638 (antibody, V domains shown)
VH: QVQLQQPGTELVKPGASVKLSCKASGYTFTSFWMHWVKQRPGQGLEWIGNINPRNGATKYNEKFRSKVTLTADKTSSTAYMHLSSLTSEDSAVYYCAREDYDEIYYAMDSWGQGTSVTVSS
VL: QNVLTQSPAIMSASPGEKVTMTCSASSSVIYMYWFQQKPGSSPRVLIYDTSNLASGVPARFSGSGSGTSYSLTISRMEAEDAATYYCQQWSTYPLTFGAGTKLELK
notes: mouse anti-human CD39 hybridoma mAb, IgG1, κ
B2: EM0004-38c1 (antibody, human IgG1, kappa, L234A L235A, name in Kabat numbering, V domains shown)
VH: B1 VH with N55Q
VL: QNVLTQSPAIMSASPGEKVTMTCSASSSVIYMYWFQQKPGSSPRVLIYDTSNLASGVPARFSGSGSGTSYSLTISRMEAEDAATYYCQQWSTYPLTFGAGTKLELKR
notes: chimeric mAb638 variant; also called EM004-38c1
B3: EM0004-38c2 (antibody, human IgG1, kappa, L234A L235A, name in Kabat numbering, V domains shown)
VH: B1 VH with G56A
VL: B2 VL
notes: chimeric mAb638 variant
B4: HuEM0004-38-17 (antibody, human IgG1, kappa, L234A L235A, V domains shown)
VH: EVQLVQSGAEVKKPGASVKVSCKASGYTFTSFWMHWVRQAPGQGLEWMGNINPRNGATKYNEKFRSRVTMTADKSISTAYMELSRLRSDDTAVYYCAREDYDEIYYAMDSWGQGTTVTVSS
VL: ENVLTQSPATLSLSPGERATLSCSASSSVIYMYWFQQKPGQSPRVLIYDTSNLASGVPARFSGSGSGTDYTLTISSLEPEDFAVYYCQQWSTYPLTFGQGTKLEIKR
notes: humanized mAb638, human IgG1/kappa
B5: HuEM0004-38-18 (antibody, human IgG1, kappa, L234A L235A, V domains shown)
VH: B4 VH with M70L
VL: B4 VL
notes: as for B4
B6: HuEM0004-38-19 (antibody, human IgG1, kappa, L234A L235A, V domains shown)
VH: B4 VH with M48I, M70L
VL: B4 VL
notes: as for B4

What follows are binders tested against cynomolgus monkey CD39 on CHO-K1 cells (cynomolgus monkey) (assay: FACS on CHO-K1-cyno CD39 cells).
For B1, the binding was “binds”.

Each binder was assayed against T1, human CD39 protein (recombinant) (human, UniProt P49961 38-478, limits assumed) (assay: ELISA on coated human CD39 protein).
T1 sequence: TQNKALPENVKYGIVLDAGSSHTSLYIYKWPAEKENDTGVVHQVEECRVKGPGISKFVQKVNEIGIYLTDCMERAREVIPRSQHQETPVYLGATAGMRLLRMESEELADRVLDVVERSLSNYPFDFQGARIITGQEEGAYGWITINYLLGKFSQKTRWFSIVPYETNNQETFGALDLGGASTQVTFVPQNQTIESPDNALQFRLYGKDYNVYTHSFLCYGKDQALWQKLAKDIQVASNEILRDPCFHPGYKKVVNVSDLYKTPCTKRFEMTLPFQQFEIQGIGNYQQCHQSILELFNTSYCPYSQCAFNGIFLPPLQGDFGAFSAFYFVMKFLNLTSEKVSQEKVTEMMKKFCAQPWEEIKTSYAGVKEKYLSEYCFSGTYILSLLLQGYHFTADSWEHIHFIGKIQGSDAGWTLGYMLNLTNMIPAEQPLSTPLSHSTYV
Description: To determine if anti-CD39 mAbs bind to human CD39, ELISA plates were incubated overnight at 4° C. with human CD39 protein or mouse CD39 protein diluted in PBS, pH7.4 buffer at 1 μg/ml. Plates were washed four times in washing buffer (PBS containing 0.05% Tween 20), and blocked for 1 hour at 37° C. with 200 μl per well blocking buffer (1% BSA in PBS containing 0.05% Tween 20). After blocking buffer was removed, hybridoma supernatant or diluted purified Abs were added to the wells at 100 μl per well and incubated at 37° C. for 1 hour. The wells were washed four times with washing buffer, and anti-mouse HRP (for mouse anti-human CD39 Ab characterization) or anti-rat HRP (for rat anti-mouse CD39 Ab characterization) (Sigma) were 1:5000 diluted and added to the wells at 100 μl per well. The plates were incubated for 1 hour at 37° C. and washed four times in washing buffer. 100 μl of tetramethylbenzidine (TMB) chromogenic solution were added per well. Following color development, the reaction was stopped with 1N HCl, and absorbance at 450 nm was measured. The data were proceeded by GraphPad software.
Humanized antibodies HuEM04-38-6 to HuEM0004-38-20 and chimeric antibodies EM04-38c, EM004-38c1, and EM0004-38c2 were tested for CD39 specific binding by ELISA as described in Example 1.2 and for inhibition of protein-based ATPase activity as described in Example 1.3.
With B2 the binding was “binds”.
For B3, the binding was “binds”.
B4 was tested, and the binding was “binds”.
For B5, the binding was “binds”.
With B6 the binding was “binds”.
